The list shows a part of the results.

The target of this experiment is T1, OsSMF1 (Oryza sativa, UniProt Q6ZLB0 1-436).
T1 sequence: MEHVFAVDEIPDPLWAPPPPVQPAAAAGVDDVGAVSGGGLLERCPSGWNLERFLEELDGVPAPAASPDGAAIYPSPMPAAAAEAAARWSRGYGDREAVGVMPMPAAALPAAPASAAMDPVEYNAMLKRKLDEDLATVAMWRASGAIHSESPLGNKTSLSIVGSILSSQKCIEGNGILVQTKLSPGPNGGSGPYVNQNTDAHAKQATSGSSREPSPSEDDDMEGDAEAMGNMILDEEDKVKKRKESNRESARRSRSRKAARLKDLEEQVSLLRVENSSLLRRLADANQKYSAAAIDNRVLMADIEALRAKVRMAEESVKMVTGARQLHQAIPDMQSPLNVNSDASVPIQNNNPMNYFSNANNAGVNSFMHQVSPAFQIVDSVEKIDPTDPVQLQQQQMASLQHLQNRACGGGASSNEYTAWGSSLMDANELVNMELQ
As to the kind of experiment: protein-binding microarray (RPBM); PBS, 2% BSA, 51.3 ng/ul salmon testes DNA, 50 uM zinc acetate, 200 nM TF, 25 C, 1 h; high values mean tight binding. Particulars: protein: recombinant; tags: N-terminal polyhistidine and DsRed monomer fusion (pET32a); chain copies: 2; label: CyDye5-dUTP incorporated in the synthesized complementary strand; 3' TTTTT single-stranded linker to array surface; dsDNA, one strand shown. The essentials: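 Polyhistidine-tagged DsRed fusions of transcription factors, joined at the N-terminus, were expressed in E. coli BL21-CodonPlus and isolated on Ni–NTA. They were incubated at 200 nM for 1 h at 25 °C on a custom Agilent array, double-stranded and BSA-blocked, in PBS with 2% BSA, salmon testes DNA and 50 µM zinc acetate. The binding signal is per-feature fluorescence intensity (arbitrary units) read on an Axon 4000B scanner after washing.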
Regarding “TGGCTAGTGTGTCCATTTGACGCTGGTAAAGTCAATTCGTCGGAGTCACCTAGTGCAG”, the binding signal is 3480 fluorescence intensity (a.u.).

Turning to “GGCTATGTTACCCAGATACGGCTGAAAAGCCACGTATCCGCGGAGTCACCTAGTGCAG”, the binding signal is 6270 fluorescence intensity (a.u.). In the case of “GGTCGATCCGTAGTAGGCGCTTGGCCGGCCATGACGCACGCGGAGTCACCTAGTGCAG”, the binding signal was 4540 fluorescence intensity (a.u.).

Take “ATCTTAGCGTGGATGCGTGATTAACACTGAGGATGTCGGACGGAGTCACCTAGTGCAG”: the binding signal was 3410 fluorescence intensity (a.u.).

For “GGAGGGGCAGCTTGGTCATTCCACGTGGGAAGACTCGCCCCGGAGTCACCTAGTGCAG”, the binding signal is 9300 fluorescence intensity (a.u.). The figure for “TATAGAGAGAGGGACCTGAGATGTTGCTTGTGAGTTTCAGCGGAGTCACCTAGTGCAG” is 3380 fluorescence intensity (a.u.). Regarding “CTACCACCTGACACGCGTCCACTCTTATACTAACTAGTTTCGGAGTCACCTAGTGCAG”, the binding signal is 6370 fluorescence intensity (a.u.). Regarding “AGGAATTTCCGTCATCCTAGCGGTGTTCGGTGAGAACTTGCGGAGTCACCTAGTGCAG”, the binding signal is 5610 fluorescence intensity (a.u.).

On to “CTCGATCCGCCTCGTACGCCAGCTCGCTCGCTCGCTCCCCCGGAGTCACCTAGTGCAG”, for which the binding signal was 3400 fluorescence intensity (a.u.). With “ATCCACCACGCTCCCCTCCCGCGTGTCACCACGCCATTACCGGAGTCACCTAGTGCAG”, the binding signal was 3310 fluorescence intensity (a.u.). Regarding “AATGTGTGTCCGTATATCCGATGTGACACACCAAAACTTTCGGAGTCACCTAGTGCAG”, the binding signal is 5190 fluorescence intensity (a.u.).

In the case of “CCAGCCCATACTCACGCTCCCGGCCGGCCCATCCATGGCCCGGAGTCACCTAGTGCAG”, the binding signal is 3290 fluorescence intensity (a.u.). “ATCTGCCCAAGCTCAGCTAAACATCAGCATAGGCTCCTCTCGGAGTCACCTAGTGCAG”: the binding signal is 3990 fluorescence intensity (a.u.).

As to “TACCCCATAAACTTGTATACTCATTGGCATTGCAATTAATCGGAGTCACCTAGTGCAG”, the binding signal was 5870 fluorescence intensity (a.u.). The figure for “GCCTTACACAATGACGAAGCAGATCACTGAAAGGTCTATGCGGAGTCACCTAGTGCAG” is 3650 fluorescence intensity (a.u.). For the sequence “CGCACGGTGCAGAGCTGACACGTAGATAGTCGTCGTTGTTCGGAGTCACCTAGTGCAG”, the binding signal is 4360 fluorescence intensity (a.u.). In the case of “CTATACTCCAGCTTGCAAACATATATGGAATCATGGATTTCGGAGTCACCTAGTGCAG”, the binding signal is 3300 fluorescence intensity (a.u.).

Regarding “TTATCCACTGTCTTATTCTGTCCACGTCATTAAACAAAGCCGGAGTCACCTAGTGCAG”, the binding signal was 10400 fluorescence intensity (a.u.). The figure for “CCGCCGCCACGGAGGCTTGGCGCGCTCGCCAGCGCCGGCCCGGAGTCACCTAGTGCAG” is 3570 fluorescence intensity (a.u.); for “TCGTTCATAGCGCACCCCTACCGCCTCGTCACGCTGCCCCCGGAGTCACCTAGTGCAG” it is 7120 fluorescence intensity (a.u.). Under “ATTGTATACCTCTGCCTCTTAATACTATTTCCCAAGGACCCGGAGTCACCTAGTGCAG” stands 3540 fluorescence intensity (a.u.). The figure for “TCAAGGGTGACTCGGATCAGAGCTGGGACCCACTTTCAGTCGGAGTCACCTAGTGCAG” is 6330 fluorescence intensity (a.u.). Regarding “CCGTGTGCGTCACCGACATATGGGTCCCTTCTAGCGGTGCCGGAGTCACCTAGTGCAG”, the binding signal was 4600 fluorescence intensity (a.u.).

As to “GCGCTGCCACGAGTGCCCGCGTCATCCCGTCCCCTCGCACCGGAGTCACCTAGTGCAG”, the binding signal was 6120 fluorescence intensity (a.u.). Under “ATTTAGCTCTGATGTGCATGCACTCTAGAAGGCCCCACAGCGGAGTCACCTAGTGCAG” stands 3360 fluorescence intensity (a.u.); under “GTTCCAACAAAAGACTAATTGTCTAGTCATACATTAAAGTCGGAGTCACCTAGTGCAG”, 3920 fluorescence intensity (a.u.); under “TGTGCATCGTGTCTCACTCGTTAAAATCCACGCGTATTAACGGAGTCACCTAGTGCAG”, 3750 fluorescence intensity (a.u.).

Turning to “GGTTGACCGTAGTCAACTCGCCACGTTGACTAGAACCGAGCGGAGTCACCTAGTGCAG”, the binding signal was 3900 fluorescence intensity (a.u.). Under “GTTTAAATATAATGATTGTCAGTGGATGATAATGTGTCAGCGGAGTCACCTAGTGCAG” stands 3480 fluorescence intensity (a.u.); under “TGTTCATACTCCTAACAGTTGTACGTGTACCATTATCTGGCGGAGTCACCTAGTGCAG”, 3180 fluorescence intensity (a.u.). On to “CACTCTCTTTTGAGCACAGAAACAAATGCAAATGCTGTTGCGGAGTCACCTAGTGCAG”, for which the binding signal is 24000 fluorescence intensity (a.u.).

“ACCAAACCAAACCAAACCAAACCAAACCGCACATGACACACGGAGTCACCTAGTGCAG”: the binding signal is 3320 fluorescence intensity (a.u.). In the case of “AAGAGGATTCAGCAATGCTTCTCCTCAAGGCATGATGATCCGGAGTCACCTAGTGCAG”, the binding signal is 4070 fluorescence intensity (a.u.). For “AGTCATTTGGTACGCTGTCATGCCATGCCAGTACAACACGCGGAGTCACCTAGTGCAG”, the binding signal was 4950 fluorescence intensity (a.u.). As to “TGGTTCATGGCCACACCACACTTTTGACTGCCACAGTGTGCGGAGTCACCTAGTGCAG”, the binding signal was 3140 fluorescence intensity (a.u.). Under “TAGGATTGATCTCATCTCCCCATAGCGACGCGTGTGCGTTCGGAGTCACCTAGTGCAG” stands 3600 fluorescence intensity (a.u.); under “AGAGAGGGTAAGTAGTCACTTACACATGGAGCCCACGCTACGGAGTCACCTAGTGCAG”, 3520 fluorescence intensity (a.u.).

Consider “ACGAGATGCGCCGCCTGCCTTCCCCTCCACGCCAACGCCACGGAGTCACCTAGTGCAG”, for which the binding signal is 3190 fluorescence intensity (a.u.). The figure for “TCTATATTCTACTCAATGCTTGGTTCTAAATTGGCCTCAACGGAGTCACCTAGTGCAG” is 24700 fluorescence intensity (a.u.); for “GCGTCGCATATTTCTCCAAACCCACGCAGATCTCCGCTTTCGGAGTCACCTAGTGCAG” it is 3150 fluorescence intensity (a.u.); for “ATCGGTTTCTTTCCACGCTGACGCAAATCAATCGCCTCCTCGGAGTCACCTAGTGCAG” it is 5090 fluorescence intensity (a.u.). With “GGGAGAATATTGAGGGGAACTGTGGAGAAGTGGAGTTTTGCGGAGTCACCTAGTGCAG”, the binding signal was 3160 fluorescence intensity (a.u.).

The values are drawn from paper PMC7819943, “Rice protein-binding microarrays: a tool to detect cis-acting elements near promoter regions in rice”.
